Data reported in the supplement of paper PMC3334620.
In all, about 33,000 sequences were measured (“E-score (-0.5 to 0.5)”: median about -0.015, highest 2% from about 0.3 on). The list shows a part of the results.

Each sequence was assayed against T1, Abf1 (UniProt P14164) (assay: PBM E-score (8-mer binding enrichment) (E-score (-0.5 to 0.5)); higher = stronger / more preferred TF binding). Settings: protein concentration: 200 nM; construct: GST-full length.
T1 sequence: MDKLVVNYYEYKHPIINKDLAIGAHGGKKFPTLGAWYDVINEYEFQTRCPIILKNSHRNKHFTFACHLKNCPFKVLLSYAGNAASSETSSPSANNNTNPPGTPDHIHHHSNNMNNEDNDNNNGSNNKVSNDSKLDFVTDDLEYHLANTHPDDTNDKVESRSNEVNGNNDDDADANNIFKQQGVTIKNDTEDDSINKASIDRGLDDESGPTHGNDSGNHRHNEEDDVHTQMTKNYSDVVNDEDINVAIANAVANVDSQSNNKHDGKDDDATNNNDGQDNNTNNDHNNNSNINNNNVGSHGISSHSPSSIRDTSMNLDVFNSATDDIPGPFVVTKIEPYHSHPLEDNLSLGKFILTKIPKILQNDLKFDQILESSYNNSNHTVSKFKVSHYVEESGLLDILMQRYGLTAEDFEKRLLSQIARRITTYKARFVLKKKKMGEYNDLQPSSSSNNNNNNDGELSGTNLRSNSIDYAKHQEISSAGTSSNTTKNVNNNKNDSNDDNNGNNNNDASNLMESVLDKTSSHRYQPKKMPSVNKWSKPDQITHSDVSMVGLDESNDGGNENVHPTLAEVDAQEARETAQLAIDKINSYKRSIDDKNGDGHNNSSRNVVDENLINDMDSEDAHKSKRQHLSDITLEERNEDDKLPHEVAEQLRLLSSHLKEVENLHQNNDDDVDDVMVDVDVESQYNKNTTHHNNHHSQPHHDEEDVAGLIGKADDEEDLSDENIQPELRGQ
Procedure, shortened: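 Using PURExpress in vitro transcription/translation, GST-tagged yeast transcription factors were made in full-length or DNA-binding-domain form. These were applied at about 100-200 nM to double-stranded universal all-10-mer Agilent arrays, and bound protein was detected with fluorescent anti-GST. Scans were normalised with masliner before the Universal PBM Analysis Suite assigned E-scores to ungapped eight-base words pooled with their reverse complements.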

Sequence	PBM E-score
AATTCCCT	-0.0703
GGCACCAC	-0.0738
CATTGCGC	-0.00712
GCGAGTAA	0.0468
ATAGACCA	-0.0989
TCCCCAGA	-0.206
ATCACCGA	0.23
TAAGTATA	0.253
AATGCAAT	-0.0812
GGTTGTTA	0.0335
CGAACCAG	-0.0817
CCCTGTCA	-0.0302
ATCGAGCG	0.0604
TCTACCAA	-0.0268
ACCCTGGA	-0.238
AGGGCAGA	-0.337
AAAATTCA	0.253
CAAAGGTC	-0.119
AGTACCCG	0.0797
ACGGTTGA	0.171
ACAGACCT	-0.0877
GATCTACA	0.169
AGTCTTCG	0.105
GGGAACGA	-0.0829
AATCGGAT	0.0329

Sequence	PBM E-score
CCAGTCGA	0.024
CAGTGGGA	-0.194
GGGTTGGA	-0.202
CATCAAAC	0.0039
AAATAGTG	0.24
CTTACGGA	0.121
CGGAGAAG	-0.205
CCCACAAA	0.0336
GACTGGAA	-0.133
AGTAAGAT	0.0847
CTCCTGGC	-0.218
AACTCTCA	0.00063
CGCGTTGA	0.0564
CCGAAGAC	-0.107
GGAAGCCC	-0.113
ATCCAGGC	-0.092
CTCTAGCC	-0.0808
AACCCGAG	-0.0688
CTCGCCGC	-0.185
CGTAGAGA	0.147
GCCCTCAA	-0.163
CTGTCGTA	0.251
ACCGGAGA	-0.04
GGTCCCTA	-0.132
CGATATAC	0.204

Some of the entries so far, comma-delimited.
Sequence,PBM E-score
AATGCAAT,-0.0812
CCCTGTCA,-0.0302
GATCTACA,0.169
CTCGCCGC,-0.185

(list continues)

Sequence	PBM E-score
ATCCACGC	0.0014
GTTTTACA	-0.0536
CTCTATTC	-0.221
GTAATGAC	0.206
CTTCTCAA	-0.0242
ACGTGCTA	0.0443
CACTGCGA	0.00219
CAATTCGC	0.0755
GTAAGAGA	-0.0167
CTGGGTTC	-0.0606
AGGAGACA	0.0313
ACCTTTAT	-0.15
GCGTACCC	-0.305
GTAGGTTA	-0.0271
GTCTAAGA	0.00869
GGCGGAGA	-0.00874
GCATCGGC	-0.17
GGCCCCGA	0.0226
GAACCAGA	-0.2
AGATAGAG	-0.0524
CAAGTTCC	-0.155
AAGTAGCG	0.11
CGGTCAAG	-0.0987
ACTGTAAC	0.00878
ACGCATCA	0.231

Sequence	PBM E-score
CAGTTGAA	0.0382
CGGGTGCC	-0.0683
ATGGCACC	-0.137
AGTTTTAC	-0.175
CTTGACCA	-0.131
CGCGTTGC	0.0553
ACGTGGTG	-0.0809
GGGGGTCA	-0.203
TGTTTGAA	-0.101
AGAATTCG	0.0655
GACGCGTC	0.12
CGGCTAAA	-0.0879
AGGATGCG	0.179
ACTAGAAG	-0.0705
GTTCCGTA	0.236
AACATGCG	0.0369
CCTAACGA	0.235
AAAAAGAT	0.0794
AGGAAGTA	-0.108
CTCCCCGC	-0.154
AAAAGGGA	-0.0917
GTATACCA	-0.122
AAACACTA	0.0573
AAACTTGT	0.0507
CGATCTCA	0.0718

Sequence	PBM E-score
GGGCCGAA	-0.289
ATCCGCAT	0.0353
CTAGAACC	-0.0756
ACATTGCA	-0.0641
ACGTTCTG	0.152
CATGAAGC	-0.103
AACGCCCG	-0.116
CCCCGAGG	-0.183
CGGTTAGA	0.0396
AGTCAAGG	-0.144
ACACTTAC	0.0115
GCTCGAAC	0.0236
ACGCAATA	0.0632
GATGGTCC	-0.136
CCAGGACA	-0.139
TATGTTGA	-0.097
GACGTCCA	0.145
GCGAGGAA	-0.0784
GGCTCCAC	-0.27
ACTCACAC	0.0385
AACAGAGG	-0.13
GTCCAAAC	-0.0807
CGTACGTC	0.359
AAATAGAC	-0.0254
GTACCATA	0.0556

Sequence	PBM E-score
AGAGGTTG	-0.0169
CCGTCCGC	-0.147
GATGAGAA	0.155
AAGCAACA	-0.0411
CAGGGTGC	-0.376
ATAAAGCG	0.181
AGTTCGCG	-0.0641
GCAGGGAA	-0.0937
CTTGTAAA	-0.00179
CGCCAACA	-0.23
CTTCTACA	-0.117
GGGGAGGA	-0.263
AAAACCGT	0.0542
AATCGGAA	0.0767
AGCTTCCT	0.00875
ATGGTTGG	-0.169
AGTAATGG	-0.0441
GAACCTTA	0.00165
ATTTCGTG	0.288
AGGACCCG	-0.0411
CAGCCCTA	-0.154
AATATATA	0.0807
ATTTGTAA	0.204
TCGTCCCA	0.163
ATAGCCGA	0.0734

Look-ups from the results shown.
In PBM E-score, GATGAGAA has 0.155
In PBM E-score, ATTTGTAA has 0.204
In PBM E-score, AGAGGTTG has -0.0169
In PBM E-score, AGTTCGCG has -0.0641

(next part)

Sequence	PBM E-score
AACGCAGT	-0.188
CTAACAGC	-0.0486
GGGATCTA	-0.02
GGGTTCAC	0.00438
GAGTATCC	0.0845
ATGCTGTA	0.0278
CATAGACC	-0.17
CAGTAGTA	-0.0294
GAGTATCA	0.0372
TCGCATCA	0.192
ATGATCAG	0.269
ACAATTCT	0.0167
CTCAGTGA	0.051
AAGTGCTC	-0.112
GCTGTAGA	-0.128
ACCACCAA	-0.234
ATGTGAAA	0.0939
CGAACCTA	-0.0863
ACTTGTTA	0.0808
ACCCGCAA	-0.277
CCATGCCC	-0.316
ATCTTCTC	0.0816
